The record followed here is article PMC7862700.

Some of the results follow. The exact form of the protein is not confirmed.

For this assay, the target named is T1, ELF2 (UniProt Q15723).
T1 sequence: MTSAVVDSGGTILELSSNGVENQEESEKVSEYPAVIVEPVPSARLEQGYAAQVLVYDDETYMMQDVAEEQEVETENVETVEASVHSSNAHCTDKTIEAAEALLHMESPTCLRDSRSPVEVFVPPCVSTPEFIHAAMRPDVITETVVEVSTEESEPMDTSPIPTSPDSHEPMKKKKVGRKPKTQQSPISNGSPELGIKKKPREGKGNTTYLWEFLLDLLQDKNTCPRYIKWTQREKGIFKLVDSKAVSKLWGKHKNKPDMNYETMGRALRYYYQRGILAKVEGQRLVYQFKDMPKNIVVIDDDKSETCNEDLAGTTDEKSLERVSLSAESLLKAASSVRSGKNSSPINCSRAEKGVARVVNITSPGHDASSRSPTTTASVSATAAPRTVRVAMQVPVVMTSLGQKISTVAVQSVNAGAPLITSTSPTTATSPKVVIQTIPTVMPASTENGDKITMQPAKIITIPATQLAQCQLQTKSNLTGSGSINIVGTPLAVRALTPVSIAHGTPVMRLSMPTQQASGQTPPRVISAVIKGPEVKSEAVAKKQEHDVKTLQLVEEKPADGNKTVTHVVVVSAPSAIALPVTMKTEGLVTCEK
Description: DAPPL (digital affinity profiling via proximity ligation, sequencing). As to conditions: 10 mM Tris-HCl pH 7.5, 50 mM NaCl, 1 mM DTT, 4% glycerol, room temperature, 30 min; GST-TFs on glutathione beads, 16-mer random dsDNA library, 0.1% …; high values mean tight binding; double strand, one strand shown; scale: fold enrichment (6-mer frequency, TF over GST control).
For the sequence ACACGA, the binding signal was 1.04.

Sequence CGCTTC returned a binding signal of 2.63.

In the case of ATCCCC, the binding signal was determined as 1.34.

CTTGTG returned a binding signal of 1.37.

Sequence AAATTT showed a binding signal of 1.34.

TGCGAT registered a binding signal of 1.07.

Turning to CCCTTT, the binding signal came out at 1.49.

Turning to AACGTA, the binding signal is 0.969.

The sequence GCCTAT gave a binding signal of 1.24.

Turning to TATCAT, the binding signal is 1.11.

The sequence TAAAAT returned a binding signal of 1.19.

On to ATTATG, for which the binding signal was found to be 1.14.

The sequence TGTTTG registered a binding signal of 1.3.

With TTTTGC, the binding signal was 1.39.

TAGTCT gave a binding signal of 1.02.

In turn, TCCCAC yielded a binding signal of 1.36.

Regarding TTACTC, the binding signal is 1.18.

CTGAGC showed a binding signal of 1.11.

With CGCCTT, the binding signal was 1.42.

Regarding GCCTTC, the binding signal worked out at 1.68.

TGGATG: the binding signal is 1.34.

TTAGTA: the binding signal was found to be 1.09.

GCTCAG displayed a binding signal of 1.09.

In turn, TTTATT gave a binding signal of 1.28.

ATTAGC returned a binding signal of 1.07.

CTCCTA: the binding signal was found to be 1.26.

As for ACAGAT, the binding signal turned out to be 0.994.

The sequence ATACTG gave a binding signal of 1.11.

AAATGA returned a binding signal of 1.34.

In turn, GCCTCG had a binding signal of 1.26.

AGACCT registered a binding signal of 0.937.

In the case of CTGTTA, the binding signal is 1.32.

Sequence CTCATG gave a binding signal of 1.15.

In turn, CGCTAG came in with a binding signal of 0.987.

As for CCTATT, the binding signal came to 1.57.

Sequence GATCCT registered a binding signal of 1.25.

In turn, ATCTTC registered a binding signal of 1.69.

In the case of TAACAC, the binding signal turned out to be 1.23.

CTTCAG displayed a binding signal of 1.25.

Take CCATAA: the binding signal worked out at 1.09.
